Reference: PMC12357876
Results are given in words; binding and its absence hold for the method and conditions named. In cells and extracts the contact can be indirect. Some results given as binding are weak or reduced against the parent protein; the word gives no strength.

Protein sequences, listed by entry. Tags and fused reporters are not part of them.
UniProt P67809: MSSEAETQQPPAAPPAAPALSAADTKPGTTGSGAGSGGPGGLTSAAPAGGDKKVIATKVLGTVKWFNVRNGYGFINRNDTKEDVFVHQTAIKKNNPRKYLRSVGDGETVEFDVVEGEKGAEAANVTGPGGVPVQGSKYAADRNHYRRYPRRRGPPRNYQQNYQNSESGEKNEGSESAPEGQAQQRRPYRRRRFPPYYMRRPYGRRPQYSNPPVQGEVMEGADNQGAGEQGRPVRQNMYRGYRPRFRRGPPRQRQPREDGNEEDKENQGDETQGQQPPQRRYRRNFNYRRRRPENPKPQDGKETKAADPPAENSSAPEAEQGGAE

Target: T1, TRIM31 (human (endogenous in HT-29 and DLD-1)) (UniProt Q9BZY9)
T1 sequence: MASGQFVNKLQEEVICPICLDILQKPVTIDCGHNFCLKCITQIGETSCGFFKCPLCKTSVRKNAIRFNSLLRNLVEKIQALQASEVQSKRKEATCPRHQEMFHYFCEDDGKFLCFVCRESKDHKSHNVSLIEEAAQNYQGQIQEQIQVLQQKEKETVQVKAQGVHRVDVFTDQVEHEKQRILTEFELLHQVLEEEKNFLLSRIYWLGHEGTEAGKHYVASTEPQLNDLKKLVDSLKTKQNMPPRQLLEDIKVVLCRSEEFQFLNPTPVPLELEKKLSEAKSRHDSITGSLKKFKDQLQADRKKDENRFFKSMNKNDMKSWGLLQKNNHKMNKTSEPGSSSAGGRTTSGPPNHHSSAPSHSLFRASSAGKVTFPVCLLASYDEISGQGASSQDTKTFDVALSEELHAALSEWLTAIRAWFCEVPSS
Assay: co-IP; IP from lysates of HT-29 and DLD-1 cells (RIPA buffer, 4 °C, protein A + G agarose beads), Western blot

binding: binds
Substance: Y-box binding protein 1 (YBX1) (from UniProt P67809 1-324)
